PubChem BioAssay AID1508588 | Peter MacCallum Cancer Centre, 2020
Here is one part, drawn at random, of about 18,000 deposited reagents. 790 of all reagents (4.4%) count as active. 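Calls rest on a combination of fold-change classes in drug and vehicle arms, not all shown here.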 A number with no mark means an inactive call. Some reagents were tested in more than one well and are listed for each.

Screen: 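Knock-downs boosting vemurafenib effects on melanoma cell growth or lactate release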 (primary screen)
Cell system: human WM266.4 melanoma cells (BRAF V600 mutant)
Reagent: siRNA pool against human genes, 40 nM
Time to read-out: 96 h from transfection to read-out
Challenge: vemurafenib 300 nM (about IC25), added 48 h after transfection, for 48 h; comparison arm got DMSO vehicle only
Measurement: 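Ratios to non-targeting siRNA for cell gain, counted as DAPI nuclei after minus before drug and averaged over two replicates, and for absorbance-read medium lactate per cell; both binned into fold-change classes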
Reading the numbers: cell gain with vemurafenib: higher = more cell gain than with non-targeting siRNA; lactate per cell with vemurafenib: higher = more lactate made per cell
Call rule: 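Enhancement is called by pairing each knock-down's vehicle-arm and drug-arm fold-change classes for viability or glycolysis; which class combinations qualify is not given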
Meaning of the calls: active = enhances vemurafenib effect; inactive = no enhancement seen

gene,PubChem SID,cell gain with vemurafenib,lactate per cell with vemurafenib
CACNA1D,SID134311543,0.71,1.12
ACTN3,SID134315554,0.42,0.35
NEDD4,SID135621335,0.65,1.08
FOXN3,SID152150499,0.68,0.82
MEAF6,SID152155704,0.93,0.56
FBXW5,SID152155107,0.66,0.44
SEZ6L2,SID135621497,0.86,0.9
SIM1,SID134314504,0.92,0.76
DDX12P,SID152156349,0.36,0.92
PCBD2,SID152156145,0.59,0.96
STARD10,SID135622386,1.02,1.13
ERLEC1,SID152156523,1.15,0.45
NHP2,SID135622503,0.49,1.22
SACM1L,SID134312341,0.77,0.84
SOCS2,SID134321533,0.59,0.6
CPT1A,SID135621831,0.71,1.44
MZB1,SID152151414,0.99,0.54
USP37,SID134311506,0.82 (active),0.42
LITAF,SID152153638,0.84,0.77
ITLN2,SID134313457,0.98,1.06
LINC01600,SID135623253,0.37,1.1
H4C5,SID134315800,0.71,0.48
IL19,SID152150563,0.73,0.66
MXRA8,SID135625196,0.36,2.05
DDX51,SID152151408,0.63,0.53
NDNF,SID135623144,0.54,1.34
TMPRSS15,SID134311439,0.69,0.58
PPRC1,SID152154201,0.49,0.55
CXCL6,SID152150005,0.16,0.6
BCORL1,SID152150548,0.18 (active),-0.09
NDUFB9,SID152153945,0.87,1.17
TAFA2,SID152152048,0.66,0.99
RPP38-DT,SID134320600,0.07,2.24
HMBS,SID152150785,0.36,1.05
ARMCX1,SID134317432,0.85,0.65
SIGLEC7,SID152155345,0.47,0.31
MGAT5,SID152153240,0.77,0.67
MKX,SID134322208,0.72,1.06
ZNF667,SID134318099,0.62,0.64
DNAJC19,SID134320036,0.28,1.32
LINC00482,SID134322124,0.71,0.72
ITGBL1,SID134323616,0.75,0.62
ZNF641,SID152147725,0.44,1.38
ILDR2,SID134329254,0.94,0.76
PRR4,SID135622306,0.53,0.97
CCDC178,SID152149926,0.28,0.77
RXYLT1,SID134324304,0.63,0.43
IFNG,SID152149716,0.66,0.49
ADGRG5,SID134310978,0.25,0.52
OTOA,SID152150640,0.51,0.92
PDE7B,SID152149718,0.93,0.29
STAT6,SID134311958,0.14,1.14
SPATA6L,SID135624114,0.48,1.09
CST1,SID134321335,0.08,1.02
HAP1,SID152151018,0.43,0.54
GGH,SID135621092,0.9,0.56
DIS3L2,SID152152501,0.79,0.87
WDR6,SID134317322,0.6,0.44
FASLG,SID134315488,0.28,1.7
CACNA1H,SID152150286,0.66,1.27
CRIPTO,SID134310646,0.33,1.75
IRAG1,SID135624189,1.07,1.07
FHIP2B,SID152155220,0.49,0.43
PDCD6,SID152149825,0.56,1.08
DUSP16,SID134312826,0.72,0.84
ZNF644,SID135621310,0.74,0.67
CD6,SID152151114,0.7,1.45
SCAF11,SID152148461,0.08,2.63
DMTF1,SID134310116,0.4,1.15
PARP14,SID152151161,1.06,0.68
STAU2,SID134312018,0.71,0.86
MFAP5,SID134315765,0.5,1.27
CD300LG,SID152155569,0.84,1.36
NT5E,SID134313103,0.12,2.13
CUL2,SID134312338,0.06 (active),0.66
NUMB,SID152151982,0.14,2.51
GPC1,SID135620809,0.38,1.26
TAS2R60,SID135623492,1.33,0.57
TUT1,SID134318396,0.23,0.83
PCED1A,SID134320321,0.58,0.31
GNRH1,SID152150624,0.64,0.38
BPIFB6,SID134313625,0.57,1.42
N4BP2,SID152151934,0.84,0.84
RBM26,SID134322900,0.4,1.57
HSBP1,SID152154118,0.45,0.8
C1QTNF4,SID152152233,0.25,1.01
EMILIN2,SID135622817,0.82,0.43
TDO2,SID134313375,0.34,1.1
SERPINF2,SID152150799,0.62,1.68
ZNF445,SID135621333,0.3,0.97
GABARAPL2,SID135621265,0.41,2.02
PCDHGA9,SID134317501,0.48,1.65
TBC1D9,SID152156324,0.36,0.85
MRGPRX3,SID152155062,0.85,1.06
CD84,SID134316885,0.83,0.62
SDHAF3,SID134324983,0.34,1.52
ZBED2,SID152150718,0.4,0.84
CT47A5,SID135625659,0.67,0.66
MYO15A,SID152147769,0.76,1.23
UNKL,SID152147345,1.01,0.81
LOXL1,SID135620858,0.23,0.48
CTTNBP2NL,SID134318037,0.17 (active),1.31
SLC22A10,SID152152533,0.79,0.49
KLF2,SID134312055,0.59,1.36
C1QTNF12,SID135624709,0.84,1.06
PLXNA4,SID135623624,0.13,0.73
PLXNA4,SID135623624,0.09,1.6
